Laboratory results published in patent US20070110748A1.
These are yes or no findings as the source states them, for the method shown. Some results given as binding are weak or reduced against the parent protein; the word gives no strength.

Sequences of proteins named here, by UniProt entry; tags and fusion partners are left off. Residues count along the entry.
UniProt P02751, residues 32-290: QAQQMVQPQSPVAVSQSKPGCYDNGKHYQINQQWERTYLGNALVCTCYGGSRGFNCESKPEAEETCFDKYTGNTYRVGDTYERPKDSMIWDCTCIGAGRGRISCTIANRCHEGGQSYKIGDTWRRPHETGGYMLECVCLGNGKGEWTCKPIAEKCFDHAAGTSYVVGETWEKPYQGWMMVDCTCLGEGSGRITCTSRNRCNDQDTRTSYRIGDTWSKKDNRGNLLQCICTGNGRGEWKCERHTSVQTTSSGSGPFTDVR

Target: T1, Fn-binding MSCRAMM on S. aureus strain Cowan cells (Staphylococcus aureus) (UniProt P14738)
T1 sequence: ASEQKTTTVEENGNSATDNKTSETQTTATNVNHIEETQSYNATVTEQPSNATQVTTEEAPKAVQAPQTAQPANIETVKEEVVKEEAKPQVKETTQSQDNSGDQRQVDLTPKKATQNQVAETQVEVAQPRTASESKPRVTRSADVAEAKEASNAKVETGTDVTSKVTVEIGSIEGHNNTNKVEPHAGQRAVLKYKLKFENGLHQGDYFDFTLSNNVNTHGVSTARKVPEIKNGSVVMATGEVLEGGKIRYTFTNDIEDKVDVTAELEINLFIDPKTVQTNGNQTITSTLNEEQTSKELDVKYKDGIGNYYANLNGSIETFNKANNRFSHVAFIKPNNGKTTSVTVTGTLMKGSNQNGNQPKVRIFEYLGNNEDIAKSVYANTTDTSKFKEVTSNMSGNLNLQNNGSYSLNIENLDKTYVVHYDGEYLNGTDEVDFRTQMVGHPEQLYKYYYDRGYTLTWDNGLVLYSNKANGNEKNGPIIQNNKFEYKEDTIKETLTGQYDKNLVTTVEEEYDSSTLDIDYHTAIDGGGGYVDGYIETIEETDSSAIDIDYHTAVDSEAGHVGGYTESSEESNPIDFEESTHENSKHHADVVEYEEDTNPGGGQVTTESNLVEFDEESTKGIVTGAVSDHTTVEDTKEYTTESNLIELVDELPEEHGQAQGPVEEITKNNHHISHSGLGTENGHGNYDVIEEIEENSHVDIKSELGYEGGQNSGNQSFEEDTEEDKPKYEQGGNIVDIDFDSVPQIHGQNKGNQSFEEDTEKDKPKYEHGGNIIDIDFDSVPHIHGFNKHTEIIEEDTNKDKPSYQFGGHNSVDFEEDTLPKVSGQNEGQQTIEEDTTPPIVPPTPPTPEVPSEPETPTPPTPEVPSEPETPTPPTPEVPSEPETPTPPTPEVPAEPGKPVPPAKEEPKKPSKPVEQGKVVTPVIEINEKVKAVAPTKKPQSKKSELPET
Experiment: 125I-N29 incubated with S. aureus Cowan 1 cells; patient IgG did not inhibit

## N-terminal Fn fragment (N29) (from UniProt P02751 32-290) (ligand)
  binding: binds
